Data reported in publication PMC7819943, “Rice protein-binding microarrays: a tool to detect cis-acting elements near promoter regions in rice”.
The list shows a part of the results.

Amino acid sequences for entries named in this document (tags omitted).
UniProt Q0JBA9, entry or part of it: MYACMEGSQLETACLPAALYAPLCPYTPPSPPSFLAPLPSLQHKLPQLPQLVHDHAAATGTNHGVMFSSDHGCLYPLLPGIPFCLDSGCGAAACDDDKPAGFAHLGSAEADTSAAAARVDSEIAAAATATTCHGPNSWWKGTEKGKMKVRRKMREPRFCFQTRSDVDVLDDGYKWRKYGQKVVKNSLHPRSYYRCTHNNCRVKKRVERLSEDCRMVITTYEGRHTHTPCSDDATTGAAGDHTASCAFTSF

Target: OsWRKY34 (Oryza sativa, UniProt Q0JBA9 1-250)
Experiment: protein-binding microarray (RPBM); PBS, 2% BSA, 51.3 ng/ul salmon testes DNA, 50 uM zinc acetate, 200 nM TF, 25 C, 1 h; high values mean tight binding
Conditions: protein: recombinant; tags: N-terminal polyhistidine and DsRed monomer fusion (pET32a); label: CyDye5-dUTP incorporated in the synthesized complementary strand; 3' TTTTT single-stranded linker to array surface; dsDNA, one strand shown
How it was run: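 In PBS with 2% BSA, salmon testes DNA and 50 µM zinc acetate, 200 nM protein was incubated on a custom Agilent array at 25 °C for 1 h and then washed off. The array had been made double-stranded by primer extension with Cy5-dUTP and blocked with 2% BSA. The proteins were transcription factors fused N-terminally to polyhistidine and DsRed, expressed in E. coli BL21-CodonPlus and purified on Ni–NTA. The binding signal is per-feature fluorescence intensity (arbitrary units) from an Axon 4000B scanner.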

Row | Sequence | binding signal
1 | GAGGACTGGGCGAAGGGGTGGAAGAAAATGTGGTTGTCGACGGAGTCACCTAGTGCAG | 8580 fluorescence intensity (a.u.)
2 | CGAACCCTAACGCACCCCGCACACCGCCAACCAACTAAACCGGAGTCACCTAGTGCAG | 8110 fluorescence intensity (a.u.)
3 | GACCACAATCTATCTACCCTATAATTCACCAACTGATGTTCGGAGTCACCTAGTGCAG | 9430 fluorescence intensity (a.u.)
4 | TTCGTCCCGCGCCACAACCCCAACCTCAGCGAGCTCCGCGCGGAGTCACCTAGTGCAG | 9150 fluorescence intensity (a.u.)
5 | CTGTTGGTCAATCGCCGAACTTACCGCCGCGCCGGCCATGCGGAGTCACCTAGTGCAG | 9410 fluorescence intensity (a.u.)
6 | GCAGATCCTTATGTTGGACTTGCCTTTCTTCCGTCCACTTCGGAGTCACCTAGTGCAG | 8500 fluorescence intensity (a.u.)
7 | TCCACTCTGTTGCCTACCGTTGCTCCACACGCCCACCTCTCGGAGTCACCTAGTGCAG | 9620 fluorescence intensity (a.u.)
8 | CAAATTTTACTATACATCAGTCAATGTTGGTTCGTTCGTTCGGAGTCACCTAGTGCAG | 9660 fluorescence intensity (a.u.)
9 | TTTATGATTCATCCTCATTCTGCTGTTAATTTATCACTTACGGAGTCACCTAGTGCAG | 8930 fluorescence intensity (a.u.)
10 | CCCCATATAAATCACACCCGTCGCATCGCTCCGATTCCCACGGAGTCACCTAGTGCAG | 8210 fluorescence intensity (a.u.)
11 | AGTCATCAGTTAGTGATTATGCTTGTTTGTTGTGATTAGTCGGAGTCACCTAGTGCAG | 11300 fluorescence intensity (a.u.)
12 | AATCCGCTCCGCTCCGTCTTCCTTCGATCCATAGGATTCGCGGAGTCACCTAGTGCAG | 9160 fluorescence intensity (a.u.)
13 | CATCTCTGCAGCTTGCCGCCGCCTCCTCCTTCGTAGGGACCGGAGTCACCTAGTGCAG | 9190 fluorescence intensity (a.u.)
14 | TCAACCTACTCGCCGTGCCACCATTGCCGCTCCCTACCAACGGAGTCACCTAGTGCAG | 12400 fluorescence intensity (a.u.)
15 | TCATTGTTTGCATGTCATTTAAGTAGTTATAATATTTTTTCGGAGTCACCTAGTGCAG | 9170 fluorescence intensity (a.u.)
16 | ATTTTTTAAAACATATCACATTGTTTTGTTCTTTTCATTTCGGAGTCACCTAGTGCAG | 12100 fluorescence intensity (a.u.)
17 | GCTCCGTCCTGCTGCTACCGCGTACATATACAGTACCGCCCGGAGTCACCTAGTGCAG | 9930 fluorescence intensity (a.u.)
18 | CCCTCCGTCGCCAGCTTTCCGTGCCGATACACCTGCTGGCCGGAGTCACCTAGTGCAG | 10800 fluorescence intensity (a.u.)
19 | ACGGTTGGGGATGTCTATGTAATCCGATGATAAGATGAGGCGGAGTCACCTAGTGCAG | 8030 fluorescence intensity (a.u.)
20 | AATCGGCCGCCGTTGACCACTGCTCTTCTCCCTCTTCTCTCGGAGTCACCTAGTGCAG | 12500 fluorescence intensity (a.u.)
21 | TTGGATCGGTGTTGGTATATTTAGTTAGTTTAGAGGTCTTCGGAGTCACCTAGTGCAG | 12600 fluorescence intensity (a.u.)

Some of the entries so far, tab-delimited:
Row	Sequence	binding signal
18	CCCTCCGTCGCCAGCTTTCCGTGCCGATACACCTGCTGGCCGGAGTCACCTAGTGCAG	10800 fluorescence intensity (a.u.)
19	ACGGTTGGGGATGTCTATGTAATCCGATGATAAGATGAGGCGGAGTCACCTAGTGCAG	8030 fluorescence intensity (a.u.)
20	AATCGGCCGCCGTTGACCACTGCTCTTCTCCCTCTTCTCTCGGAGTCACCTAGTGCAG	12500 fluorescence intensity (a.u.)

(list continues)

Row | Sequence | binding signal
22 | GCGGCTGGGGCGGGGAGTACAAGGCCTGGGTTGCATCGCACGGAGTCACCTAGTGCAG | 9980 fluorescence intensity (a.u.)
23 | TGTTCATCCCGGATTTGGCTGGGGTTTGTCTAAAATTCGACGGAGTCACCTAGTGCAG | 8080 fluorescence intensity (a.u.)
24 | ATTAAACCTTGCAATCCTGTATAATCCTATTGTAGATTTGCGGAGTCACCTAGTGCAG | 8160 fluorescence intensity (a.u.)
25 | GAAGAGGAGGAGGAGGAGGAGGAGGAGGAGGGGATCAATGCGGAGTCACCTAGTGCAG | 8350 fluorescence intensity (a.u.)
26 | AAGAAAGCTATATACCATCTCTCATGCGAGTAAATAATTACGGAGTCACCTAGTGCAG | 8340 fluorescence intensity (a.u.)
27 | TATCTTCCTTGTATTTGTTTTTTTTGTTTCTTTTTTCCTTCGGAGTCACCTAGTGCAG | 8750 fluorescence intensity (a.u.)
28 | ACTGCTTTCCAACCACCTTGATGTTTTTCTTGTTGTTCATCGGAGTCACCTAGTGCAG | 11200 fluorescence intensity (a.u.)
29 | CCCATGCATAAAGTAGTATGTATAGTGTGTTTACTTAATTCGGAGTCACCTAGTGCAG | 12000 fluorescence intensity (a.u.)
30 | ACAAGGGGAAGGGGAAAGGAAAAGTTGACTTTTCAGCTTGCGGAGTCACCTAGTGCAG | 8420 fluorescence intensity (a.u.)
31 | AGAGATATCTTCCATTGCGAGCTGGATTTCCTACTAATGTCGGAGTCACCTAGTGCAG | 8110 fluorescence intensity (a.u.)
32 | CCCAGCCACAGCGACGAACCACCGCCCCGGAGGCCGCCGGCGGAGTCACCTAGTGCAG | 8460 fluorescence intensity (a.u.)
33 | CGTCGAGTTGGGTGGGAAGAGGAAGGCGTATCATCTCGATCGGAGTCACCTAGTGCAG | 8520 fluorescence intensity (a.u.)
34 | AGAGAGAGGGGAGGGCAGCAGAAGGGGAGCGGCGAAGCCCCGGAGTCACCTAGTGCAG | 8990 fluorescence intensity (a.u.)
35 | GCGCCTCGTCGAACTCCCCACCGTGCTCTGCTGCCGCCCTCGGAGTCACCTAGTGCAG | 8440 fluorescence intensity (a.u.)
36 | CGCTGACTCCATATCGCCTTGTTGGTTATGACCAAATATTCGGAGTCACCTAGTGCAG | 8060 fluorescence intensity (a.u.)
37 | TAATATGTATAAATTTGGTCTCTACTTTATCCTTCAATTTCGGAGTCACCTAGTGCAG | 9500 fluorescence intensity (a.u.)
38 | ACTTCAGTCATTTTCCATCACATCAACATGTCATATACATCGGAGTCACCTAGTGCAG | 8420 fluorescence intensity (a.u.)
39 | CACACGAGTGACTCTCACCATCCATTTCTCAAGCTCTCGACGGAGTCACCTAGTGCAG | 10100 fluorescence intensity (a.u.)
40 | AGTCTTGGACGGTGATCTCCATTGCTTTTGTGATTTTGCTCGGAGTCACCTAGTGCAG | 9250 fluorescence intensity (a.u.)
41 | TTGTTAGAAAATCCGTCTCTTGTACCCATCTCGTCGAAACCGGAGTCACCTAGTGCAG | 9070 fluorescence intensity (a.u.)
42 | ATTTTTACGTGCGATTAAAATTAATTTTTCACATATAGCTCGGAGTCACCTAGTGCAG | 8520 fluorescence intensity (a.u.)
